Measurements reported in PubChem BioAssay AID686937 (Drosophila RNAi Screening Center, 2013).

Aim: 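Genes whose loss weakens secretory pathway function in fly cells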 (primary screen)
System: Drosophila S2 cells expressing secreted horseradish peroxidase
Knock-down reagent: long dsRNA against Drosophila genes
Duration: about 5.5 days (5 days dsRNA, then 12 h reporter induction)
Treatment: reporter expression induced after 5 days of dsRNA, read 12 h later; inducer not stated
Detection: 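Chemiluminescent measurement of peroxidase in the medium 12 h after reporter induction, following 5 days of dsRNA, given as a z-score per plate; higher means more secretion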
Direction: z-score: higher = more reporter secreted into medium
In all, the deposit lists about 23,000 reagents; shown is an unselected part of those that have a named target and a result. 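Reduced-secretion tags in replicate 1 do not always agree with the z-scores; no criterion for assigning the tags was given.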 Not stated in the record: the amount of reagent.

The first 4 records, ahead of the listing:
Gene,amplicon,"z-score, replicate 1","z-score, replicate 2","z-score, replicate 3","z-score, replicate 4","phenotype, replicate 1"
CG11737,DRSC14364,-0.13,-0.12,,,
Golgin84,DRSC15269,0.14,0.14,,,
ATP8B,DRSC12883,0.12,0.23,,,
ATP8B,DRSC14961,0.4,0.43,,,

Main list, from the start:
Gene,amplicon,"z-score, replicate 1","z-score, replicate 2","z-score, replicate 3","z-score, replicate 4","phenotype, replicate 1"
CG11737,DRSC14364,-0.13,-0.12,,,
Golgin84,DRSC15269,0.14,0.14,,,
ATP8B,DRSC12883,0.12,0.23,,,
ATP8B,DRSC14961,0.4,0.43,,,
bumpel,DRSC16100,0.3,0.39,,,
CG17803,DRSC15275,0.5,0.49,0.37,0.1,
CG17803,DRSC22811,0.62,0.63,,,
Klp54D,DRSC07450,0.35,0.36,,,
CG33061,DRSC09938,-0.02,0.23,,,
CG33061,DRSC22897,-1.21,-0.09,,,
l(2)k09913,DRSC04699,0.11,0.43,,,
ths,DRSC06153,-1.89,-0.47,,,reduced secretion
Fancm,DRSC16348,0.21,-0.27,,,
Pink1,DRSC18361,0.49,0.49,,,
Ac78C,DRSC11467,0.68,0.17,,,
Ac78C,DRSC11602,0.27,0.42,,,
Ac78C,DRSC11619,-0.18,-0.24,,,
mst,DRSC20582,0.04,0.39,,,
CG44098,DRSC12214,0.38,0.09,-0.38,0.11,
CG44098,DRSC12240,0.16,-0.07,,,
CG44098,DRSC12327,0.21,0.4,,,
RpS27,DRSC14244,-1.79,-2.12,,,reduced secretion
RhoU,DRSC17635,0.46,0.16,,,
RhoU,DRSC17803,-0.12,-0.2,,,
RhoU,DRSC17804,0.4,0.3,0.43,0.09,
RhoU,DRSC22159,-0.64,-0.23,,,
RhoU,DRSC22396,-2.37,-0.51,,,reduced secretion
zuc,DRSC02160,0.28,0.32,,,
adp,DRSC06916,0.33,0.4,,,
TwdlU,DRSC12224,0.29,0.08,,,
CG4480,DRSC02750,0.47,0.02,,,
Acsx1L,DRSC16014,0.34,0.22,,,
Jwa,DRSC02048,0.45,0.34,,,
CG6028,DRSC15951,0.47,0.45,,,
CG17600,DRSC20638,0.59,0.3,,,
CG17600,DRSC20640,0.27,0.31,,,
CG17600,DRSC22753,0.39,0.12,,,
CG14851,DRSC14975,0.37,0.61,,,
CG14851,DRSC21500,0.41,-0.73,,,
CG31928,DRSC00293,0.19,0.15,,,
Mgat1,DRSC07463,-1.56,-0.61,,,reduced secretion
CG43059,DRSC08916,0.44,0.5,,,
CG5968,DRSC02916,0.41,0.3,,,
CG6628,DRSC10679,0.37,0.12,,,
Su(z)12,DRSC11293,0.34,0.66,,,
SNF4Agamma,DRSC13461,-0.56,-0.3,,,
SNF4Agamma,DRSC13463,0.7,0.52,-0.4,-0.15,
SNF4Agamma,DRSC15879,-0.04,0.16,,,
SNF4Agamma,DRSC16847,0.62,0.42,,,
Cse1,DRSC03287,-0.66,-1.15,0.25,-0.83,
Rubicon,DRSC17889,0.34,0.24,,,
CG18180,DRSC10304,0.05,0.05,,,
yip2,DRSC03640,0.06,0.23,,,
Cpsf5,DRSC10374,0.44,0.71,,,
CREG,DRSC16595,0.42,0.25,,,
CG15517,DRSC15056,0.12,0.37,,,
CG4022,DRSC10395,0.41,0.47,,,
CG31075,DRSC16016,0.28,0.32,,,
CG9406,DRSC04552,1.31,0.22,,,
CG11617,DRSC00321,0.39,0.06,,,
CG11617,DRSC21786,-0.47,0.71,,,
Cyp12b2,DRSC07364,0.2,0.27,,,
Septin1,DRSC20573,0.36,0.11,,,
pinta,DRSC14698,0.25,0.38,,,
CG3719,DRSC18493,0.64,0.47,,,
CG31510,DRSC14182,0.26,-0.05,,,
dpr16,DRSC12217,0.38,0.47,,,
dpr16,DRSC12249,-0.49,-0.69,,,
Antp,DRSC12490,0.22,-0.61,,,
SmydA-5,DRSC04867,0.16,0.26,,,
Saf-B,DRSC16167,0.31,0.14,,,
IntS14,DRSC00668,0.28,0.53,,,
beat-IV,DRSC14195,0.14,0.24,,,
beat-IV,DRSC14673,0.27,0.52,,,
zen,DRSC12632,0.44,0.31,,,
CG10804,DRSC17764,0.48,0.32,,,
Nep3,DRSC20685,0.1,0.17,,,
ninaD,DRSC02886,0.14,0.3,,,
CG43336,DRSC15765,-0.18,-0.03,,,
dpr3,DRSC00395,0.19,-0.06,,,
dpr3,DRSC00396,0.55,0.52,,,
dpr3,DRSC21369,-1.72,-2.08,,,reduced secretion
RpL35A,DRSC12302,-4.04,-2.81,,,reduced secretion
eIF3b,DRSC06900,-2.99,-1.31,,,reduced secretion
sif,DRSC08759,0.35,0.39,,,
sif,DRSC11395,0.51,0.21,,,
sif,DRSC22065,0.11,-0.03,,,
sif,DRSC22828,-0.41,0.44,,,
PhKgamma,DRSC20268,0.29,0.39,,,
CG31688,DRSC02117,-0.07,-0.15,,,
CG31688,DRSC02682,0.05,-0.44,,,
Cpr78Ca,DRSC11651,0.35,0.39,,,
ND-B14.5AL,DRSC11795,-0.03,0.42,,,
Myo61F,DRSC22144,-0.77,-0.15,,,
muc,DRSC02832,0,0.16,,,
muc,DRSC21940,0.07,-0.13,,,
cv,DRSC17833,0.28,-0.1,,,
CG32537,DRSC20073,0.31,0.35,,,
Nplp4,DRSC00391,0.43,0.79,,,
pros,DRSC12856,0.47,0.52,,,
pros,DRSC17032,0.15,0.59,,,
pros,DRSC22612,0.22,-0.06,,,
oxt,DRSC08522,0.16,0.47,,,
CG10749,DRSC09798,0.36,0.41,,,
